The list shows a part of the results. The main result of the screen is listed elsewhere. These columns were measured beside it and carry no call. Most of these compounds were active or inconclusive in the main read-out, so they are no random draw. Words in brackets tell the shape of the fitted curve; partial curves, single points and poor fits give uncertain potencies. Numbered stars: 1 amine (or outer) side, 2 acyl side, 3 side chain; on linkers, the order of the positions; unused ones are H or OH. Bridge positions count the residues as written; N and C are the ends. Square brackets hold non-standard residues; d marks the D form. Peptide text beside a SMILES is read from it. I, II: the chains in the order shown. Actinocin(9to1) = Cc1c2oc3c(C)ccc(C(=O)[*:1])c3nc-2c(C(=O)[*:2])c(N)c1=O; NMeV = CN[C@H](C(=O)O)C(C)C; Sar = CNCC(=O)O

The text below walks through data of PubChem BioAssay AID662 (National Center for Advancing Translational Sciences (NCATS), 2007).

The nature of the assay: Cell signaling CRE-BLA (Fsk stim). Conditions: CHO CRE-bla reporter (cAMP response element driving beta-lactamase), forskolin EC10, beta-lactamase ratio; measured here: 460 nm blue channel. A digest of the protocol: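 Cells were plated overnight at 37 °C, exposed to compound titrations plus EC10 NKH 477 for 3 h, then given CCF4 dye for 2 h at room temperature. Blue/green (460/530 nm) ratio was converted to %Activity and AC50 values calculated.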
In the case of `COc1ccc(CCNS(=O)(=O)c2ccc(C3CNC(=O)C3)cc2)cc1OC` (configuration not stated), the AC50 was 12.6 µM [rising, partial curve].
In the case of `COC(=O)[C@@]1(Cc2ccc(OC)cc2)[C@H]2c3cc(C(=O)N4CCCC4)n(CCn4cc([N+](=O)[O-])nc4C)c3C[C@H]2CN1C(=O)c1ccccc1` it was 3.98 µM [rising, partial curve].
`COc1ccc(-c2cc3ccc(OCc4nn[nH]n4)cc3oc2=O)cc1`: the AC50 is 15.8 µM [rising, single point].
Consider `CCOC(=O)CSc1ccc2nnc(-c3cccs3)n2n1`, for which the concentration at half-maximal activity (AC50) was 5.01 µM [rising, partial curve].
Regarding `Cc1cc(NC(=O)CSc2nc3ccccc3n2CC(=O)N2CCCCC2)no1`, the AC50 is 25.1 µM [rising, single point].
For `CCOC(=O)CCn1c(=O)c2c(nc(Br)n2Cc2ccccc2)n(C)c1=O`, the AC50 was 15.8 µM [rising, single point].
Turning to `CCOC(=O)c1ccc(NC(=O)CCc2nc(-c3ccccc3)no2)cc1`, the AC50 is 31.6 µM [falling, single point].
`Fc1ccccc1CSc1nnc(-c2ccccc2)o1`: the AC50 is 15.8 µM [rising, partial curve, poor fit].
`CC[C@@H]1Cc2cc(O)ccc2C2=C1c1ccc(O)cc1C[C@H]2CC`: the AC50 is 12.6 µM [falling, partial curve].
Take `CC(=O)Nc1nc2ccc(Br)cc2s1`: the AC50 was 10 µM [falling, single point].
With `O=C(COc1ccccc1)Nc1ccc2c(c1)nc1n2CCSC1` the figure was 0.631 µM [rising, full curve].
As for `CCOC(=O)C1CCN(CC(=O)c2c(C)[nH]c3ccccc23)CC1`, the AC50 was 3.16 µM [falling, full curve].
As to `Cc1cc(NC(=O)CSC2=Nc3ccccc3C3=NC(Cc4ccccc4)C(=O)N23)n[nH]1` (configuration not stated), the AC50 is 1 µM [rising, full curve].
Consider `CCCn1c2ccccc2c2nnc(SCC(=O)OC)nc21`, for which the AC50 was 3.98 µM [rising, partial curve].
Take `COc1cc(NC(=O)Cn2c(-c3cncs3)nc3ccccc32)cc(OC)c1OC`: the AC50 is 10 µM [rising, partial curve].
Take `Cc1ccc(-n2c(N)c(-c3nc4ccccc4n3C)sc2=S)cc1`: the AC50 was 5.01 µM [rising, single point].
Take `Cc1nn2c(N3CCN(c4ccccn4)CC3)cc(C(C)C)nc2c1-c1ccccc1`: the AC50 was 2 µM [rising, partial curve].
In the case of `CCC(=O)Oc1ccc2c(C)c(Cl)c(=O)oc2c1` it was 12.6 µM [rising, partial curve]; in that of `O=CN(Cc1ccco1)C1(C(=O)NC2CCCCC2)CCCCC1`, 0.00316 µM [falling, full curve, poor fit].
For the compound `Cn1c(=O)c2c(nc(CN3CCN(c4ccc(F)cc4)CC3)n2CCN2CCOCC2)n(C)c1=O`, the AC50 was 20 µM [rising, single point].
In the case of `Cc1noc(C)c1-c1nc(N2CCNCC2)c2ccccc2n1` it was 12.6 µM [rising, partial curve]; in that of `CCCCCCn1c(SCC(=O)c2ccccc2)nc2c1c(=O)[nH]c(=O)n2C`, 3.16 µM [rising, full curve]; in that of `Cn1c(=O)c2c(nc(OCC3COC(C)(C)O3)n2Cc2ccccc2F)n(C)c1=O` (configuration not stated), 10 µM [rising, single point].
With `CN(Cc1ccco1)c1cc(-c2ccoc2)ncn1`, the AC50 is 5.01 µM [rising, single point].
For `O=C(NCCC1=CCCCC1)C1CCN(S(=O)(=O)c2ccc(-n3cnnn3)cc2)CC1`, the AC50 was 0.1 µM [falling, full curve, poor fit].
Consider `OC(CNCCc1ccccc1)c1ccccc1` (configuration not stated), for which the AC50 was 0.00631 µM [falling, full curve, poor fit].
For `COc1cc(C(=O)Nc2ccncc2)cc(OC)c1OC`, the AC50 was 15.8 µM [rising, single point].
In the case of `CCSc1nc(N2CCOCC2)c2c(c1C#N)CCCC2`, the AC50 was 7.94 µM [falling, partial curve].
For the compound `CC1=C(C(=O)NCc2ccccc2)C(c2cccnc2)n2ncnc2N1` (configuration not stated), the AC50 is 25.1 µM [rising, single point].
Regarding `On1onc2c3cc(-c4ccccc4)nc3ccc21`, the AC50 was 12.6 µM [rising, partial curve].
Consider `O[C@H](CCCN1CCN(c2ncc(F)cn2)CC1)c1ccc(F)cc1`, for which the AC50 was 25.1 µM [falling, partial curve, poor fit].
`CCSc1nc2cc(C(=O)OC)ccc2c(=O)n1CC`: the AC50 was 12.6 µM [rising, partial curve].
Regarding `Cn1c2c(c(=O)n(C)c1=O)C1c3ccccc3OCC1C(C)(C)O2` (configuration not stated), the AC50 was 12.6 µM [rising, partial curve].
Consider `CN1CCN(c2ncc3nc(-c4ccccc4)c(=O)n(Cc4ccc(F)cc4)c3n2)CC1`, for which the AC50 is 3.98 µM [rising, full curve].
With `O=C(CCS(=O)(=O)c1cc(Br)cc2c1N(C(=O)C1CC1)CC2)NCc1ccco1` the figure was 0.126 µM [falling, full curve]; with `COc1cc(OC)c(NC(=O)Nc2ccc(OC)c(OC)c2)cc1Cl`, 12.6 µM [rising, single point].
In the case of `C=CCNC(=O)c1scc2c1CCCC2` it was 0.00398 µM [falling, full curve, poor fit]; in that of `CCOC(=O)c1oc2ccccc2c1NC(=O)c1cccs1`, 2 µM [rising, full curve]; in that of `CC(=O)c1ccc(NS(=O)(=O)c2ccccc2)cc1`, 3.16 µM [falling, partial curve].
Regarding `Cc1ccc(-c2nc3ncccn3c2Nc2ccc3c(c2)OCO3)o1`, the AC50 was 0.00398 µM [falling, full curve, poor fit].
For `COc1ccc(Oc2ncc3nc(-c4cccs4)c(=O)n(C)c3n2)cc1`, the AC50 was 6.31 µM [rising, partial curve].
Turning to `Cc1c2oc3c(C)ccc(C(=O)N[C@@H]4C(=O)N[C@H](C(C)C)C(=O)N5CCC[C@H]5C(=O)N(C)CC(=O)N(C)[C@@H](C(C)C)C(=O)O[C@@H]4C)c3nc-2c(C(=O)N[C@@H]2C(=O)N[C@H](C(C)C)C(=O)N3CCC[C@H]3C(=O)N(C)CC(=O)N(C)[C@@H](C(C)C)C(=O)O[C@@H]2C)c(N)c1=O` (I: T[dV]P[Sar][NMeV] / II: T[dV]P[Sar][NMeV]; ester I:1-I:C, II:1-II:C; linker I:N-II:N via Actinocin(9to1)), the AC50 is 0.0398 µM [falling, full curve, poor fit].
